The values below come from PMC7515859.

Amino acid sequences for entries named in this document (tags omitted).
UniProt P50637: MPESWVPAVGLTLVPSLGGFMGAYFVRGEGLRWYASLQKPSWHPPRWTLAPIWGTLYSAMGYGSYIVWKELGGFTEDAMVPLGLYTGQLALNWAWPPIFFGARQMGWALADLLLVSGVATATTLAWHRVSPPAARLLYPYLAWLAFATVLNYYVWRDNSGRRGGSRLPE

Assay [1] has as its target Translocator protein 18 kDa (TSPO) (mouse (endogenous in primary microglia)) (UniProt P50637). Put plainly: proximity ligation; Duolink PLA in fixed (4% PFA), permeabilised (0.2% Triton X-100) primary mouse microglia; goat anti-TSPO with mouse anti-gp91^phox, mouse anti-p22^phox or rabbit anti-VDAC; vehicle or LPS 18 h (no effect of LPS seen); single-antibody and no-primary controls.

The target is the same in assay [2]. Put plainly: co-IP; primary mouse microglia lysate (0.5% NP-40, 150 mM KCl, 2.5 mM EDTA, 10 mM Tris pH 7.4), pre-cleared; IP with anti-TSPO antibody (ab109497) overnight at 4 °C, Protein G Dynabeads; Western blot; cells treated 18 h with vehicle or 100 ng/mL LPS (less gp91^phox and p22^phox co-precipitated after LPS, VDAC unchanged); no-antibody IP as negative control. Background: A western blot detects proteins with antibodies after separation by electrophoresis.

These are yes or no findings as the source states them, for the method shown. In cells and extracts the contact can be indirect. Some entries that bind do so weakly or less than the wild type.

B1: p22^phox (NOX2 subunit) (protein, UniProt Q61462 1-192)
chain: MGQIEWAMWANEQALASGLILITGGIVATAGRFTQWYFGAYSIAAGVLICLLEYPRGKRKKGSTMERCGQKYLTSVVKLFGPLTRNYYVRAALHFLLSVPAGFLLATILGTVCLAIASVIYLLAAIRGEQWTPIEPKPKERPQVGGTIKQPPTNPPPRPPAEVRKKPSEGEEEAASAGGPQVNPMPVTDEVV
Regarding B1, the binding result in assay [1] and in assay [2] was “binds” in each case.

B2: gp91^phox (NOX2 subunit) (protein, UniProt Q61093 1-570)
chain: MGNWAVNEGLSIFVILVWLGLNVFLFINYYKVYDDGPKYNYTRKLLGSALALARAPAACLNFNCMLILLPVCRNLLSFLRGSSACCSTRIRRQLDRNLTFHKMVAWMIALHTAIHTIAHLFNVEWCVNARVGISDRYSIALSDIGDNENEEYLNFAREKIKNPEGGLYVAVTRLAGITGIVITLCLILIITSSTKTIRRSYFEVFWYTHHLFVIFFIGLAIHGAERIVRGQTAESLEEHNLDICADKIEEWGKIKECPVPKFAGNPPMTWKWIVGPMFLYLCERLVRFWRSQQKVVITKVVTHPFKTIELQMKKKGFKMEVGQYIFVKCPKVSKLEWHPFTLTSAPEEDFFSIHIRIVGDWTEGLFNACGCDKQEFQDAWKLPKIAVDGPFGTASEDVFSYEVVMLVGAGIGVTPFASILKSVWYKYCDNATSLKLKKIYFYWLCRDTHAFEWFADLLQLLETQMQERNNANFLSYNIYLTGWDESQANHFAVHHDEEKDVITGLKQKTLYGRPNWDNEFKTIASEHPNTTIGVFLCGPEALAETLSKQSISNSESGPRGVHFIFNKENF
As for B2, the binding result in assay [1] and in assay [2] was “binds” each time.
